Results deposited as PubChem BioAssay AID1224827 (NIAID, 2016).
The deposit covers about 3,800 reagents; below is a part drawn at random. Over the whole deposit, about 2,200 (57%) were called active. 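Active means a strong reporter change in either direction; calls are per siRNA, not per gene; qiagen siRNAs gave weaker effects.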 Reagents against one gene are numbered here. Further read-outs or replicates are left out here.

Screen: 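Retest primary hits on a TNF reporter with six siRNAs per gene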 (follow-up of hits)
Cells: RAW264.7 G9 mouse macrophage reporter clone
Knock-down reagent: single siRNA against mouse genes, 100 nM siRNA
Timing: siRNA for 2 days, then LPS about 16 h
Challenge: bacterial lipopolysaccharide (LPS), 10 ng/ml, cells fixed after overnight (about 16 h) stimulation
Measurement: 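Imaged nuclear TNF reporter intensity, background removed, scaled per plate and to non-targeting control wells, as z-scores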
Scale: TNF reporter z-score, mean: higher = stronger Tnf promoter reporter signal; gene median z, three same-vendor siRNAs: higher = stronger Tnf reporter signal for the gene
Rule for the call: 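An siRNA is called active when its mean z-score over replicates is at least +2 or at most -2; control wells get no call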

Gene | reagent | TNF reporter z-score, mean | gene median z, three same-vendor siRNAs | Call
Pdk3 | 1 | 5.87 | -1.97 | active
Pdk3 | 2 | -1.97 | -1.97 | inactive
Pdk3 | 3 | -3.36 | -1.97 | active
Pdk3 | 4 | 1.28 | -0.0193 | inactive
Pdk3 | 5 | -0.382 | -0.0193 | inactive
Pdk3 | 6 | -0.527 | -0.0193 | inactive
Flvcr1 | 1 | 5.02 | 2.1 | active
Flvcr1 | 2 | 3.7 | 2.1 | active
Flvcr1 | 3 | 0.0338 | 2.1 | inactive
Shc2 | 1 | 1.88 | 1.09 | inactive
Shc2 | 2 | 2.08 | 1.09 | active
Shc2 | 3 | -1 | 1.09 | inactive
Cdkn1a | 1 | 4.27 | -3.2 | active
Cdkn1a | 2 | -3.2 | -3.2 | active
Cdkn1a | 3 | -3.69 | -3.2 | active
Cdkn1a | 4 | -1.15 | -1.73 | inactive
Cdkn1a | 5 | -1.53 | -1.73 | inactive
Cdkn1a | 6 | -2.54 | -1.73 | active
Or2t47 | 1 | 8.69 | 3.49 | active
Or2t47 | 2 | 7.63 | 3.49 | active
Or2t47 | 3 | -2.61 | 3.49 | active
Or2t47 | 4 | 2.89 | 0.103 | active
Or2t47 | 5 | 2.51 | 0.103 | active
Or2t47 | 6 | -3.45 | 0.103 | active
Tmem171 | 1 | -5 | -5.26 | active
Tmem171 | 2 | -5.35 | -5.26 | active
Tmem171 | 3 | -5.83 | -5.26 | active
Tmem171 | 4 | 1.79 | -1.69 | inactive
Tmem171 | 5 | -2.36 | -1.69 | active
Tmem171 | 6 | -2.13 | -1.69 | active
Nav1 | 1 | 5.24 | -0.448 | active
Nav1 | 2 | -1.34 | -0.448 | inactive
Nav1 | 3 | -1.61 | -0.448 | inactive
Nav1 | 4 | 2.27 | -0.27 | active
Nav1 | 5 | 0.0933 | -0.27 | inactive
Nav1 | 6 | -1.37 | -0.27 | inactive
Acox2 | 1 | 2.06 | -0.407 | active
Acox2 | 2 | -0.407 | -0.407 | inactive
Acox2 | 3 | -5.93 | -0.407 | active
Acox2 | 4 | -0.353 | -1.15 | inactive
Acox2 | 5 | -0.672 | -1.15 | inactive
Acox2 | 6 | -2.02 | -1.15 | active
Cd300c | 1 | 4.7 | -1.47 | active
Cd300c | 2 | -2.2 | -1.47 | active
Cd300c | 3 | -2.13 | -1.47 | active
Cd300c | 4 | 3.58 | 0.244 | active
Cd300c | 5 | 3.02 | 0.244 | active
Cd300c | 6 | -3.96 | 0.244 | active
Or2y1b | 1 | -0.0491 | -2.9 | inactive
Or2y1b | 2 | -2.9 | -2.9 | active
Or2y1b | 3 | -4.47 | -2.9 | active
Or2y1b | 4 | 3.21 | 1 | active
Or2y1b | 5 | 1.19 | 1 | inactive
Or2y1b | 6 | 0.335 | 1 | inactive
Med21 | 1 | -4.08 | -4.41 | active
Med21 | 2 | -4.32 | -4.41 | active
Med21 | 3 | -5.61 | -4.41 | active
Med21 | 4 | 1.59 | -0.492 | inactive
Med21 | 5 | -0.492 | -0.492 | inactive
Med21 | 6 | -2.73 | -0.492 | active

Limited to “TNF reporter z-score, mean” (3 entries from above):
Or2t47 #2	7.63
Or2t47 #3	-2.61
Or2t47 #4	2.89
